These are yes or no findings as the source states them, for the method shown. In cells and extracts the contact can be indirect. Some binding calls cover weakened binding; strength is not graded here.
Assays:
[1] = target: ESR1-YAP1 fusion protein (recombinant, purified) (UniProt P03372); assay: pull-down; ERE DNA pulldown as for MS (purified receptor on immobilised 4xERE DNA, HeLa S3 nuclear extract), independent samples, no E2, read by immunoblotting; only the target purified
[2] = target: Y537S ERα (recombinant, purified) (UniProt P03372); assay: as above

Sequences of proteins named here, by UniProt entry; tags and fusion partners are left off. A change or cut given only in a name is not applied to a line headed by its entry.
UniProt P03372: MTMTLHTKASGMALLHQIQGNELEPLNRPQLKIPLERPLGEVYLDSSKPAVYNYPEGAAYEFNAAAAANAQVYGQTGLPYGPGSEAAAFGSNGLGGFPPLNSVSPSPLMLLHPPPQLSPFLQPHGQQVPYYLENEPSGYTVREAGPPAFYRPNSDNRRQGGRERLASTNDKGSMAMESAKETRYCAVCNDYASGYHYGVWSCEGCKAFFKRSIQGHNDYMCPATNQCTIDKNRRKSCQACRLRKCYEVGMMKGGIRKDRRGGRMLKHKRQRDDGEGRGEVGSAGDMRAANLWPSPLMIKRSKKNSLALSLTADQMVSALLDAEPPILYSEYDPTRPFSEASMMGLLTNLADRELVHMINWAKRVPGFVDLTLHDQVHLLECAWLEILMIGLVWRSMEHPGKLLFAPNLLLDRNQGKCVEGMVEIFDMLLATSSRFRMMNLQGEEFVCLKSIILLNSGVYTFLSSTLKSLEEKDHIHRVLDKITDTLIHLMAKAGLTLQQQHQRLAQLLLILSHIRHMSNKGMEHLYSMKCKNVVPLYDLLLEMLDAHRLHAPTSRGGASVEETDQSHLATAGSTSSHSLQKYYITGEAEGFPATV
UniProt P25786: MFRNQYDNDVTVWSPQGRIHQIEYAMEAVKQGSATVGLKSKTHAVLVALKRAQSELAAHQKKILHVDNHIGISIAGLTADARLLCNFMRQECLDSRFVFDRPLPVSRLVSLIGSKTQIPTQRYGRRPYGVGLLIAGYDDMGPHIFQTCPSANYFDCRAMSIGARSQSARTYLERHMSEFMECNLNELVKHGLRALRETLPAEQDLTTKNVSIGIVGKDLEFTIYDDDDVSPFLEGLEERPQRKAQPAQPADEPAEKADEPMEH
UniProt Q8IZL8: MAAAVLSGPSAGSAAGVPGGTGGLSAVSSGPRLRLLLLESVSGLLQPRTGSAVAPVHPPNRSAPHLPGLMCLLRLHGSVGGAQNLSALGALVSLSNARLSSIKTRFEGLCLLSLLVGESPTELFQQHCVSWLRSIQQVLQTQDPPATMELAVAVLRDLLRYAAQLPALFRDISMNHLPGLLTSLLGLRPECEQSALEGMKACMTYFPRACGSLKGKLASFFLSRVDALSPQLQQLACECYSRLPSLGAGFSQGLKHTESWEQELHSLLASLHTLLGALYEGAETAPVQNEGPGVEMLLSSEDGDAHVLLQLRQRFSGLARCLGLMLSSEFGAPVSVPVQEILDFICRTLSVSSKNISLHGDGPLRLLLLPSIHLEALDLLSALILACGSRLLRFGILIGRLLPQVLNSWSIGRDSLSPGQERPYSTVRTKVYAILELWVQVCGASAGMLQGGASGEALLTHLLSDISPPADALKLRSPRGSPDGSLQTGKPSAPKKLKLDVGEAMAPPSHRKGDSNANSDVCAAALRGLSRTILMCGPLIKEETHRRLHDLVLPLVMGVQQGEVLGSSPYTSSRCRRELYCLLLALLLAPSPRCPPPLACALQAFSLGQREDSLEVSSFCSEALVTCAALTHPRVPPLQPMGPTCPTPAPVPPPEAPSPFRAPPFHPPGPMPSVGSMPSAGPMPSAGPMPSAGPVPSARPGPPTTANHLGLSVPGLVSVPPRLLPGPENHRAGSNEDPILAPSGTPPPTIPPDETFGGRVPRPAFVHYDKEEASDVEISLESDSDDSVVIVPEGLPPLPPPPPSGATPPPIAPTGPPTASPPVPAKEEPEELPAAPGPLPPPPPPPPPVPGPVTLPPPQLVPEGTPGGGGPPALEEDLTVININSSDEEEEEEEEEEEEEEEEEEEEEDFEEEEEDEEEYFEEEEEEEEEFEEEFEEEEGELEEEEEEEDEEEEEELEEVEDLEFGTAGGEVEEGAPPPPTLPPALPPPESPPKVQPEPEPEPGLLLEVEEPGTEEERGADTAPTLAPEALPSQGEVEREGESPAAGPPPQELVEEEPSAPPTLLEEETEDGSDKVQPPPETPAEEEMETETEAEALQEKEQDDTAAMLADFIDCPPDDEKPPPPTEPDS
UniProt P62195: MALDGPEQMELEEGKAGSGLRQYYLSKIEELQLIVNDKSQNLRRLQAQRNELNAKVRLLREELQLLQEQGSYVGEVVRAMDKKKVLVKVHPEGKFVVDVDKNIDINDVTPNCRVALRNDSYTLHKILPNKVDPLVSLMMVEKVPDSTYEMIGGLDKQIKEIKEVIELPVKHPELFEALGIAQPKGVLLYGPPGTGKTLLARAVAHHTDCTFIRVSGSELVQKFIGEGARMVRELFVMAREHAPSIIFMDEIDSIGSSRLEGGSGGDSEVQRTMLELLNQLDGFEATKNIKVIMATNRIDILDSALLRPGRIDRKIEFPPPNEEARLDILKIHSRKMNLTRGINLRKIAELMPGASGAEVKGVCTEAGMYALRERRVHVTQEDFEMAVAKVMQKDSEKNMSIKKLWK

binding [1]	binding [2]	Substance
binds	–	20S C2/PSMA1, endogenous (from UniProt P25786 1-263)
–	binds	PELP1, endogenous (from UniProt Q8IZL8 1-1130)
binds	–	SUG1/PSMC5, endogenous (from UniProt P62195 1-406)

Reference: publication PMC6095836
